Measured values reported in paper PMC4466666.
No constants are given. Whether binding was seen depends on the method and setting. In cells and extracts the contact can be indirect. Some entries that bind do so weakly or less than the wild type.

Chains of the proteins cited; added tags and fusions are not shown. Lines headed by an entry give the natural chain unless they say otherwise; changes in a name come on top.
UniProt P78527: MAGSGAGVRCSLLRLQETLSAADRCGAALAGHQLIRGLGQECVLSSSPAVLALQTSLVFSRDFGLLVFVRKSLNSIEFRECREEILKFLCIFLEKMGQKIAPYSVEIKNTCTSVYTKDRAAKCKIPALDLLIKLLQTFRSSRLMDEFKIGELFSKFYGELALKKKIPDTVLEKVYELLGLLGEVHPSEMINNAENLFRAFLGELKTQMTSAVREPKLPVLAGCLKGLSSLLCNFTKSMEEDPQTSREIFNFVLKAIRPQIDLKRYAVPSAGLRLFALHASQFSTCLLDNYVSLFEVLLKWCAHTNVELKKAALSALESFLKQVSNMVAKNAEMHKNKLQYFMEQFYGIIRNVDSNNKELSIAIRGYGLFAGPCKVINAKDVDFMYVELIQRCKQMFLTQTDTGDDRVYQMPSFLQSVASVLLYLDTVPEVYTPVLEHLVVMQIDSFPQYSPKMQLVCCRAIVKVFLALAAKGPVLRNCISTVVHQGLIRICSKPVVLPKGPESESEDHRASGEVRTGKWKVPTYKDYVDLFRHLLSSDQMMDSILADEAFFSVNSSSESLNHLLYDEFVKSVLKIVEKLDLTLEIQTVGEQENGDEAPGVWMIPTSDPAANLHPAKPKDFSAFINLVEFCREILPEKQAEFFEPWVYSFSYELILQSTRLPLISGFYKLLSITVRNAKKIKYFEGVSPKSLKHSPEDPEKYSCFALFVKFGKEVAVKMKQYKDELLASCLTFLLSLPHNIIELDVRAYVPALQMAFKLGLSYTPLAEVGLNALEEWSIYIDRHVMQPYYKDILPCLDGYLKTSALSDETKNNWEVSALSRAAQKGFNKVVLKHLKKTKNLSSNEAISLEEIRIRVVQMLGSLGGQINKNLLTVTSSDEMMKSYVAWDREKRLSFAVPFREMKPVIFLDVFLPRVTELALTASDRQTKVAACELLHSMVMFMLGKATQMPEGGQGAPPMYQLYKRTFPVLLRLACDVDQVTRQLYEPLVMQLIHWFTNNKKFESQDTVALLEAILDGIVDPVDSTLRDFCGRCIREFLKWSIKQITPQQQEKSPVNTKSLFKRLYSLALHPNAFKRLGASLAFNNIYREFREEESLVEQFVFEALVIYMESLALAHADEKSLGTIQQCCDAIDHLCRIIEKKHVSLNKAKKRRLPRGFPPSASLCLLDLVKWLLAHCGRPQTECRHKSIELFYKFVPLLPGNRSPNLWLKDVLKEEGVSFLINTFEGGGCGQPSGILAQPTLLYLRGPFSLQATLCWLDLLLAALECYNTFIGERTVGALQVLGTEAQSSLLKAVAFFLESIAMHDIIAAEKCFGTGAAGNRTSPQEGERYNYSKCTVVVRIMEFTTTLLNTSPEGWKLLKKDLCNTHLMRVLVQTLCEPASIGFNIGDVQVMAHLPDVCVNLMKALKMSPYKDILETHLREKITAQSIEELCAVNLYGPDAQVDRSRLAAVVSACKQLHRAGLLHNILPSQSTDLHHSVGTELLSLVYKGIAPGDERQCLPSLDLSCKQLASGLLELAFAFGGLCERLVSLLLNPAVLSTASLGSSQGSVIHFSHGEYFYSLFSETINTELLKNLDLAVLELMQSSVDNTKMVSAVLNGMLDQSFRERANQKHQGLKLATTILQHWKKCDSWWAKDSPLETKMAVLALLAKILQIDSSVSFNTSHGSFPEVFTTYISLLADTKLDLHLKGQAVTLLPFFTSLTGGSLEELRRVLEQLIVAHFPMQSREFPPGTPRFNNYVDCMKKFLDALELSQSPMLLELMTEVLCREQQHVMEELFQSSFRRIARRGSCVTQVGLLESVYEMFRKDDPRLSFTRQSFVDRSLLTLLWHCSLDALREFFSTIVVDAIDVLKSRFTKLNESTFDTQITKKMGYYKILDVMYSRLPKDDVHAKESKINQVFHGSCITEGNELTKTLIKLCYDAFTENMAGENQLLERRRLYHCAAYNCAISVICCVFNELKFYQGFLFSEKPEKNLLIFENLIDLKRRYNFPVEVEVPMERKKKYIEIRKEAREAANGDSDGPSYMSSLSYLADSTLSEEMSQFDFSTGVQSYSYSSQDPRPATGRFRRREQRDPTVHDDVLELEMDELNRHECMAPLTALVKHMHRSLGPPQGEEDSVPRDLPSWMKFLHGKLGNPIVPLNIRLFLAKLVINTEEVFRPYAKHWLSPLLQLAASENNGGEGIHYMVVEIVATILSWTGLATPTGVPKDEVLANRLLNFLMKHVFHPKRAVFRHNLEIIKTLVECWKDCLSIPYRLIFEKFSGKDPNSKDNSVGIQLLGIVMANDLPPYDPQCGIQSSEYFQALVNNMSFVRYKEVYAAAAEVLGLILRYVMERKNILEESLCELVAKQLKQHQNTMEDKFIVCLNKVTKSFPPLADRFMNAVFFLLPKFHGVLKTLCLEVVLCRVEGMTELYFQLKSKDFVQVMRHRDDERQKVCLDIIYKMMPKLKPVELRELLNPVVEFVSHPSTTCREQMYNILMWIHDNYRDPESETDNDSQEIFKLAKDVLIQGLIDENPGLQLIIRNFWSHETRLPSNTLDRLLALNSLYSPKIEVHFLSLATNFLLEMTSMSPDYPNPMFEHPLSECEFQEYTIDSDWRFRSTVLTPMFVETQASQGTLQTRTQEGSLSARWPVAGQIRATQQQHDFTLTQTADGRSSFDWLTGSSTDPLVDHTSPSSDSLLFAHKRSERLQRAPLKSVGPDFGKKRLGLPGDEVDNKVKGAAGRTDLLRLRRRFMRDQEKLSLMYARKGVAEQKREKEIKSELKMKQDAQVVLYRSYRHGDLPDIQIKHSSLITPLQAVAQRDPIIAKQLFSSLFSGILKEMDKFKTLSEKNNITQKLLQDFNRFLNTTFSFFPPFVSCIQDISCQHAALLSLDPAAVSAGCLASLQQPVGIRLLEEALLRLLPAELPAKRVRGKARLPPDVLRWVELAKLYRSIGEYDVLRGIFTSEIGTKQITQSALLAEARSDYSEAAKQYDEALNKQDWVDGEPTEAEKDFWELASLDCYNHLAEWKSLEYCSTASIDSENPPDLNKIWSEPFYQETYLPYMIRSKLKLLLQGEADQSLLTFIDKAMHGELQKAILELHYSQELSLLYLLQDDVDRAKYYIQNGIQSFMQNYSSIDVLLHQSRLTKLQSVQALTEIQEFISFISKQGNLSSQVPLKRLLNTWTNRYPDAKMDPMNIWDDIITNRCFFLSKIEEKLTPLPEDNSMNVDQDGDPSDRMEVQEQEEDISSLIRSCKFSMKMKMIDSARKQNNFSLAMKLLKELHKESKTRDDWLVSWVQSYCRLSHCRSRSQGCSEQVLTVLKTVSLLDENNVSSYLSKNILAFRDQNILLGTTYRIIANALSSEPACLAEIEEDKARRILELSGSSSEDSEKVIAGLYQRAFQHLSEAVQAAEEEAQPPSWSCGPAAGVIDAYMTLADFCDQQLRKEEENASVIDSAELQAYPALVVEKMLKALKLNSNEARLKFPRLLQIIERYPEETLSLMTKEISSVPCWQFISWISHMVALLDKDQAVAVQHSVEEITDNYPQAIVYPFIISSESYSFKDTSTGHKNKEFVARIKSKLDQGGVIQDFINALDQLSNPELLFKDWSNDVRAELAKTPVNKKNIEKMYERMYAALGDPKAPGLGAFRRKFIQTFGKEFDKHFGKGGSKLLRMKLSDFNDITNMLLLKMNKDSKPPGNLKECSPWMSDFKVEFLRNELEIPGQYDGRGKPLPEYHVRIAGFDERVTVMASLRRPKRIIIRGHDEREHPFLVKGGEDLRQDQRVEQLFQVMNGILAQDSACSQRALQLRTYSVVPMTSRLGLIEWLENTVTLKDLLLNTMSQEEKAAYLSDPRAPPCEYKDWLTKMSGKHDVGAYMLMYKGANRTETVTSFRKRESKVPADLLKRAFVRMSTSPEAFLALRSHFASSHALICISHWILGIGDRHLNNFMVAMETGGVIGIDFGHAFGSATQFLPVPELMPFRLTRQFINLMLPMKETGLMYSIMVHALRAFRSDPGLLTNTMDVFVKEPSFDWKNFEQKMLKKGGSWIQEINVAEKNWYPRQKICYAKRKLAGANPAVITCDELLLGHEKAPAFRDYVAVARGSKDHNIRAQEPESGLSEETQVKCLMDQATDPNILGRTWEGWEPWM
UniProt P09874: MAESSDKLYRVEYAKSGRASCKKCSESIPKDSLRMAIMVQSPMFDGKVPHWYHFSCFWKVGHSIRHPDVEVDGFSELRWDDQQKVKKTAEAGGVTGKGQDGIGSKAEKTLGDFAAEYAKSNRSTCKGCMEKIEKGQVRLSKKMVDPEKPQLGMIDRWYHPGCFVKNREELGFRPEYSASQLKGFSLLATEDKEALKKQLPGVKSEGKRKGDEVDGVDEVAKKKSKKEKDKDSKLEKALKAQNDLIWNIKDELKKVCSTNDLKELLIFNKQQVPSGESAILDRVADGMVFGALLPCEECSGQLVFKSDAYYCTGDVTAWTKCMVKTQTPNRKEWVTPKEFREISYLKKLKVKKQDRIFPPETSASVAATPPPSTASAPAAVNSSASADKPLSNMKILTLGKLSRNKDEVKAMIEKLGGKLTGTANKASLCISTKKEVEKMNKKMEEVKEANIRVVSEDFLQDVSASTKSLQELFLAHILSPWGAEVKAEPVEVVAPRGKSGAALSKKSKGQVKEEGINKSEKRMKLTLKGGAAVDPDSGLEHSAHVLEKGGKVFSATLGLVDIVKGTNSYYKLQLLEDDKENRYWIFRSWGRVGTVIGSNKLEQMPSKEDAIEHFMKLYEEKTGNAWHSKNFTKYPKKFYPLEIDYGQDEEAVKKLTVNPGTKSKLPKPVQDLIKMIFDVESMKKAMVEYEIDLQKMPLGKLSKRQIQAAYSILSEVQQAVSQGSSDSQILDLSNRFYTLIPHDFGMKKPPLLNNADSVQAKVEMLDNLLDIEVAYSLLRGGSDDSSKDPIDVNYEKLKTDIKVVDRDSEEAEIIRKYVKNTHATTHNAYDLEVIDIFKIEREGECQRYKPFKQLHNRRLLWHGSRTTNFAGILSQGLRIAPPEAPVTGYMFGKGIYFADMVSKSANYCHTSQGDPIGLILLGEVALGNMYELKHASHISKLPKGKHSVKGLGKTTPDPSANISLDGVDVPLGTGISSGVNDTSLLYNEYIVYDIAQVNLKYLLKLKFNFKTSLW
UniProt P12956: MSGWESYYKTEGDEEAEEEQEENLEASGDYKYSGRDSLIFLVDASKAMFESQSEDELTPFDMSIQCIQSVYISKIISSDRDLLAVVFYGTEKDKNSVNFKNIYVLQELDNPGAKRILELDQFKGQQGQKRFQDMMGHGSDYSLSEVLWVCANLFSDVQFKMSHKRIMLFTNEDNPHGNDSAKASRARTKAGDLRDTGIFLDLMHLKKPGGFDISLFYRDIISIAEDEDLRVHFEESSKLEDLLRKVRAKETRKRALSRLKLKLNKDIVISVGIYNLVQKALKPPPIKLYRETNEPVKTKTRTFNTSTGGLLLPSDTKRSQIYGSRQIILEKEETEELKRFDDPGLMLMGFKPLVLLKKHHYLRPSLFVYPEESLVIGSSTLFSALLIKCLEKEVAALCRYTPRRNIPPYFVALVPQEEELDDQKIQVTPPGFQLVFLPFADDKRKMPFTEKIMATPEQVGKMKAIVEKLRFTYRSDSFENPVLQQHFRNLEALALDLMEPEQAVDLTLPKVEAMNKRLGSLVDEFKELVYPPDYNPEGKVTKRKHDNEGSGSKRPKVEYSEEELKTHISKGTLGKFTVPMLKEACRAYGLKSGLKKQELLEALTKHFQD

Experiments:
Assay in all cases: co-IP; HeLa cell lysates in NTEN buffer (100 mM NaCl, 20 mM Tris-Cl pH 8.0, 0.5 mM EDTA, 0.5% NP-40); 2 ug primary antibody for 12 h at 4°C, protein A/G agarose for 4 h at 4°C, 4 washes, western blot; IgG control; cells transfected with myc-tagged TNKS1BP1; the DNA-PKcs IP was also done from HeLa-NC, HeLa-shTNKS1BP1 (knock-down) and HeLa-mycTNKS1BP1 (overexpression) cells
[1] = biological target: tankyrase 1 binding protein 1 of 182 kDa (TNKS1BP1), myc-tagged (UniProt Q9C0C2)
[2] = biological target: DNA dependent protein kinase catalytic subunit (DNA-PKcs) (human (endogenous in HeLa)) (UniProt P78527)
[3] = biological target: poly(ADP-ribose) polymerase 1 (PARP-1) (human (endogenous in HeLa)) (UniProt P09874)

With “Ku70/Ku80 heterodimer (from UniProt P12956 1-609; P13010 1-732) (complex)” the binding [1] was “binds”.
With “poly(ADP-ribose) polymerase 1 (PARP-1) (from UniProt P09874 1-1014)” the binding [1] was “binds”.
With “DNA dependent protein kinase catalytic subunit (DNA-PKcs) (from UniProt P78527 1-4128)” the binding [1] was “binds”.
“tankyrase 1 binding protein 1 of 182 kDa (TNKS1BP1), myc-tagged (from UniProt Q9C0C2 1-1729)” was tested, and the binding [2] was “binds” and the binding [3] was “binds”.
